This note sets out measurements from article PMC11926652.

No constants are given. Whether binding was seen depends on the method and setting. Binding seen in cells or lysates may run through a third protein. Binding calls can cover weak binding; strength is not graded here.

The target of assay [1] is T1, mature BCCP1 (BCCP1_(81–280)), biotin carboxyl carrier protein 1 of the Arabidopsis heteromeric acetyl-CoA carboxylase (Arabidopsis) (UniProt Q42533).
T1 sequence (chain, uniformly 15N-labelled): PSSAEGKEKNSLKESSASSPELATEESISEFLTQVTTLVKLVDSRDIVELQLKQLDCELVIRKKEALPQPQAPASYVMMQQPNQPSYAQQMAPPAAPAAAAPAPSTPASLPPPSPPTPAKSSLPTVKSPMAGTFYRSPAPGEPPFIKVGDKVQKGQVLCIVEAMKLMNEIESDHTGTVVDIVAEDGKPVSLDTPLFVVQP
Description: co-purification + NMR titration; 15N-labelled mature BCCP1 (130 μM) copurified with unlabelled BADC3 (134 μM), no BC; chemical shift perturbation in 1H-15N HSQC against BCCP1 alone; 303 K, 20 mM phosphate pH 7.2, 150 mM NaCl, 10% glycerol, 2 mM DTT.

The target in assay [2] is T1, mature BCCP1 (BCCP1_(81–280)), biotin carboxyl carrier protein 1 of the Arabidopsis heteromeric acetyl-CoA carboxylase (Arabidopsis). Description: co-purification + NMR titration; 15N-labelled mature BCCP1 (114 μM) copurified with unlabelled BADC3 (132 μM) and BC (27 μM); chemical shift perturbation in 1H-15N HSQC against BCCP1 alone; 303 K, 20 mM phosphate pH 7.2, 150 mM NaCl, 10% glycerol, 2 mM DTT.

Consider “biotin attachment domain-containing protein 3, BADC3_(A55-Q263) (from UniProt F4J016) (domain or fragment)”, for which the binding result in assay [1] and in assay [2] was “binds” each time.
